Data set [1] concerns subcutaneous NES2Y tumors. Kind of data set: SPECT/CT imaging, NES2Y tumor mice. Format: in vivo, BALB/c nude mice.
For data set [2], the system named is subcutaneous BHK-GIPR tumors. Put plainly: SPECT/CT imaging, BHK-GIPR tumor mice. Format: in vivo, BALB/c nude mice.

With `CC[C@H](C)[C@H](NC(=O)[C@H](CO)NC(=O)[C@H](Cc1ccc(O)cc1)NC(=O)[C@H](CC(=O)O)NC(=O)[C@H](CO)NC(=O)[C@@H](NC(=O)[C@H](Cc1ccccc1)NC(=O)[C@@H](NC(=O)CNC(=O)[C@H](CCC(=O)O)NC(=O)[C@H](C)NC(=O)[C@H](Cc1ccc(O)cc1)NC(C)=O)[C@@H](C)O)[C@@H](C)CC)C(=O)N[C@@H](C)C(=O)N[C@@H](CCSC)C(=O)N[C@@H](CC(=O)O)C(=O)N[C@@H](CCCCN)C(=O)N[C@H](C(=O)N[C@@H](Cc1c[nH]cn1)C(=O)N[C@@H](CCC(N)=O)C(=O)N[C@@H](CCC(N)=O)C(=O)N[C@@H](CC(=O)O)C(=O)N[C@@H](Cc1ccccc1)C(=O)N[C@H](C(=O)N[C@@H](CC(N)=O)C(=O)N[C@@H](Cc1c[nH]c2ccccc12)C(=O)N[C@@H](CC(C)C)C(=O)N[C@@H](CC(C)C)C(=O)N[C@@H](C)C(=O)N[C@@H](CCC(N)=O)C(=O)N[C@@H](CCCCN)C(=O)NCC(=O)N[C@@H](CCCCN)C(=O)N[C@@H](CCCCN)C(=O)N[C@@H](CC(N)=O)C(=O)N[C@@H](CC(=O)O)C(=O)N[C@@H](Cc1c[nH]c2ccccc12)C(=O)N[C@@H](CCCCNC(=O)CN(CCN(CCN(CC(=O)O)CC(=O)O)CC(=O)O)CC(=O)O)C(=O)N[C@@H](Cc1c[nH]cn1)C(=O)N[C@@H](CC(N)=O)C(=O)N[C@H](C(=O)N[C@H](C(=O)N[C@@H](CCC(N)=O)C(=O)O)[C@@H](C)O)[C@@H](C)CC)C(C)C)[C@@H](C)CC` [[Lys^37(^111In-DTPA)]N-acetyl-GIP1-42, metal not drawn], the “tumor visualization on SPECT/CT” value in data set [1] (1 hour after injection, 0.2 µg) is reported as “clear tumor uptake”; in data set [2] (BHK-GIPR tumors, 1 and 4 hours after injection, 0.2 µg, n=2/group) it was “clearly visible”. Also, the “tumor tracer uptake on SPECT/CT with excess unlabeled GIP1-42” value in data set [1] (1 hour, co-injection 25 µg unlabeled GIP1-42) is on record as “prevented tracer uptake”; in data set [2] (BHK-GIPR tumor, 4 hours, co-injection 25 µg unlabeled GIP1-42), “completely blocked”.

The record behind these values is publication PMC5811606, “Characterization of ^111In-labeled Glucose-Dependent Insulinotropic Polypeptide as a Radiotracer for Neuroendocrine Tumors” (Scientific Reports, 2018).
